# Assay results taken from patent US6458194B1, “Azo dye compound having 1,2,4-triazole as the azo component” (Fuji Photo Film Co., Ltd., priority 1999, dated 2002).
# What was measured:
# [1] = Thermal transfer printing with dye donating materials: hue, maximum density; parameters: key to Hue: ∘: bright yellow hue; Δ: slightly poor in yellow hue; X: poor in yellow hue; settings: for Hue: thermal transfer image from dye donating materials 2-1 to 2-19; for Maximum Density: thermal transfer image, thermal head 0.25 W/dot
# Text: A polyethylene terephthalate film of 6 μm thick (product of Teijin, Ltd.), the rear surface of which having been subjected to heat-resistant smoothing finish, was used as a support, and a coating composition for forming a thermal transfer dye donating layer having a formulation shown below was coated by wire-bar coating on the front surface of the support so as to attain a dry thickness of 1.5 μm, thereby to fabricate a thermal transfer dye donating material (2-1).
# Thermal transfer dye donating materials (2-2) to (2-19) were also fabricated similarly to the foregoing process except that using other compound listed in Table 1 in place of using Compound 5.
# A synthetic paper of 150 μm thick (YUPO-FPG-150, product of Oji-Yuka Synthetic Paper Co., Ltd.) was used as a support, and a coating composition having a formulation shown below was coated thereon by wire-bar coating so as to attain a dry thickness of 8 μm, thereby to fabricate a thermal transfer image accepting material. The drying was effected by preliminary drying with a dryer, and the successive drying in an oven at 100° C. for 30 min. Coating Composition for Forming Thermal Transfer Image Accepting
# Thus obtained thermal transfer dye donating materials (2-1) to (2-19) were individually stacked with the thermal transfer image accepting material so that the dye donating layer of the former and the image accepting layer of the latter come into contact. Printing was then performed from the support side of the thermal transfer dye donating material using a thermal head with an output power of 0.25 W/dot, pulse width of 0.15 to 15 msec and dot density of 6 dot/mm, thereby to transfer the yellow to red dye and to form an image in the image accepting layer of the image accepting material. […] Individual materials were evaluated for the hue, maximum density and suitability in ink production.
# Δ slightly poor in yellow hue; and […]
# [2] = Image transfer onto image accepting materials with or without dye fixer: image density
# Text: A stacked synthetic paper of 150 μm thick was used as a support, and a coating composition (1) for forming an image accepting layer having a formulation shown below was coated by wire-bar coating on the surface of the support so as to attain a dry thickness of 5 μm, thereby to fabricate a thermal transfer image accepting material (1) (simply referred as to “image accepting material, hereinafter). The drying was effected by preliminary drying with a dryer, and the successive drying in an oven at 80° C. for 1 hour.
# Image accepting materials (2) to (4) were also fabricated similarly to the foregoing process except that individually using dye fixers and other binder resins listed in Table 2 in place of dye fixer P-24 and the binder for image accepting material (1).
# Comparative image accepting material (A) was also fabricated using a composition similar to that used for the image accepting material (2) of Example 3 except that containing no dye fixer.
# Image transfer was then performed using the image accepting materials (1) to (5) and (A), and the thermal transfer dye donating materials (2-1) to (2-5) fabricated in Example 2.
# [3] = Evaluation of inks (4-1) to (4-12); parameters: key: ∘: bright yellow hue; Δ: slightly poor in yellow hue; X: poor in yellow hue; settings: ink
# Method: The composition having the formulation shown below was solubilized under stirring at 50° C. for 30 minutes, and then gradually ed to obtain an ink (4-1).
# Inks (4-2) to (4-12) were also produced similarly to the ink (4-1) except that using an equal weight of other compounds (listed in Table 4) in place of Compound 1.
# Inks (4-1) to (4-12) were evaluated as in Example 2.
# [4] = Evaluation of ink sheets (5-1) to (5-12); parameters: key: ∘: bright yellow hue; Δ: slightly poor in yellow hue; X: poor in yellow hue; settings: ink sheet
# Method: A transparent polyester-base polymer film of 150 μm thick was used as a support, and a coating composition (1) for forming an ink sheet having a formulation shown below was coated by wire-bar coating on the surface of the support so as to attain a dry thickness of 20 μm, thereby to fabricate an ink sheet (5-1). The drying was effected by preliminary drying with a dryer, and the successive drying in an oven at 100° C. for 30 minutes.
# Ink sheets (5-1) to (5-12) were also produced similarly to the ink sheet (5-1) except that using an equal weight of other compounds (listed in Table 5) in place of Compound 1. The ink sheets (5-1) to (5-12) were then evaluated as in Example 2.
# [5] = Evaluation of filters (6-1) to (6-12): hue and surface property; parameters: key to Hue: ∘: bright yellow hue; Δ: slightly poor in yellow hue; X: poor in yellow hue; key to Surface property of filter: ∘: no crystal nor agglomeration of the dye observed under microscope; Δ: a slight crystal or agglomeration of the dye observed under microscope, while being not visible in visual inspection; X: crystal or agglomeration of the dye observed in visual inspection; settings: for Hue: filter; for Surface property of filter: spin coated on glass plate
# Text: A glass plate of 3 mm thick was used as a support, and a coating composition having a formulation shown below was coated by spin coating on the surface of the support so as to attain a dry thickness of 10 μm, thereby to fabricate a filter (6-1). The filter was preliminarily dried with a dryer, and was then allowed to stand at the room temperature for 2 days for thorough drying.
# Filters (6-1) to (6-12) were also fabricated similarly to the filter (6-1) except that using an equal weight of other compounds (listed in Table 6) in place of Compound 1. The filters (6-1) to (6-12) were then evaluated for the hue (as in Example 2) and the surface property.
# Surface Property of the Filter.
# ∘ no crystal nor agglomeration of the dye observed under microscope;
# Δ a slight crystal or agglomeration of the dye observed under microscope, while being not visible in visual inspection; and
# X crystal or agglomeration of the dye observed in visual inspection.
Compound,Hue [1],Maximum Density [1],Hue [3],Hue [4],Hue [5],Surface property of filter [5],other results
COc1ccc(-c2nsc(N=Nc3c(C(C)(C)C)nn4nc(C(C)C)[nH]c34)n2)cc1 [Compound 20],∘,1.9,–,–,–,–,"Density ([2]; image accepting material (5), dye fixer P-24, dye donating material 2-5): 2.1"
CCOC(=O)C(CC)Sc1nsc(N=Nc2c(C)nn3nc(C)[nH]c23)n1 (stereo not drawn) [Compound 6],–,–,–,–,–,–,"Density ([2]; image accepting material (2), dye fixer P-3, dye donating material 2-2): 2.2"
CSc1nsc(N=Nc2c(C(C)(C)C)nn3nc(C)[nH]c23)n1 [Compound 2],–,–,∘,∘,∘,∘,–
CCCc1nn2nc(C(C)(C)C)c(N=Nc3nc(SC)ns3)c2[nH]1 [Compound 5],∘,2.1,∘,∘,∘,∘,"Density ([2]; comparative image accepting material (A), no dye fixer, dye donating material 2-1): 1.8; Density ([2]; image accepting material (1), dye fixer P-24, dye donating material 2-1): 2.3"
CCSc1nsc(N=Nc2c(C)nn3nc(C)[nH]c23)n1 [Compound 3],–,–,∘,∘,∘,∘,–
CSc1nsc(N=Nc2c(-c3ccccc3)nn3nc(C(C)C)[nH]c23)n1 [Compound 7],∘,2.0,∘,∘,∘,∘,–
CSc1nsc(N=Nc2c(C)nn3nc(C)[nH]c23)n1 [Compound 1],–,–,∘,∘,∘,∘,–
Cc1nn2nc(C(C)(C)C)c(N=Nc3nc(-c4ccccc4)ns3)c2[nH]1 [Compound 10],∘,2.1,–,–,–,–,–
Cc1nn2nc(C(C)(C)C)c(N=Nc3nc(-c4cccc([N+](=O)[O-])c4)ns3)c2[nH]1 [Compound 12],–,–,–,–,–,–,"Density ([2]; image accepting material (3), dye fixer P-22, dye donating material 2-3): 1.9"
CCS(=O)(=O)c1nsc(N=Nc2c(-c3ccccc3Cl)nn3nc(C(C)C)[nH]c23)n1 [Compound 18],∘,1.9,–,–,–,–,–
CSc1nsc(N=Nc2c(C(C)(C)C)nn3nc(C(C)C)[nH]c23)n1 [Compound 4],∘,2.0,∘,∘,∘,∘,–
Cc1nn2nc(C(C)C)c(N=Nc3nc(-c4ccccc4)ns3)c2[nH]1 [Compound 21],∘,2.1,–,–,–,–,–
CCSc1nsc(N=Nc2c(-c3ccccc3Cl)nn3nc(-c4cccc([N+](=O)[O-])c4)[nH]c23)n1 [Compound 13],–,–,–,–,–,–,"Density ([2]; image accepting material (4), dye fixer P-23, dye donating material 2-4): 2.0"
CCS(=O)(=O)c1nsc(N=Nc2c(C(C)(C)C)nn3nc(C(C)C)[nH]c23)n1 [Compound 32],∘,2.0,∘,∘,∘,∘,–
CCSc1nsc(N=Nc2c(C(C)(C)C)nn3nc(C(C)C)[nH]c23)n1 [Compound 31],∘,2.0,∘,∘,∘,∘,–
CC(C)c1nn2nc(-c3ccccc3Cl)c(N=Nc3nc(-c4ccccc4)ns3)c2[nH]1 [Compound 9],∘,2.0,∘,∘,∘,∘,–
CCSc1nsc(/N=N/c2c(-c3ccccc3Cl)nn3nc(C(C)C)[nH]c23)n1 [Compound 34],∘,2.0,–,–,–,–,–
CSc1nsc(N=Nc2c(C(C)(C)C)nn3nc(C(C)CN4C(=O)c5ccccc5C4=O)[nH]c23)n1 (stereo not drawn) [Compound 15],∘,1.8,–,–,–,–,–
"CCSc1nsc(N=Nc2c(C)nn3c(C(C)(C)C)n[nH]c23)n1 [Comparative Compound “a”, reference compound]",Δ,1.5,–,–,–,–,–
CCOc1nn2nc(C)[nH]c2c1N=Nc1nc(-c2ccc(C(F)(F)F)cc2)ns1 [Compound 11],∘,2.0,–,–,–,–,–
CSc1nsc(N=Nc2c(C(C)(C)C)nn3nc(C(C)CN4C(=O)C=CC4=O)[nH]c23)n1 (stereo not drawn) [Compound 25],∘,2.0,–,–,–,–,–
